In patent US20160347850A1 (AbbVie / Abbott, published 2016):
These are yes or no findings as the source states them, for the method shown.

Target: rabbit CD40 (rabbit)
Assay: Alexa 647 labeled Ab102 on the surface of B cells

binding: no binding (tested: 30 µg/mL (200 nM))
B1: Ab102 (antibody, human IgG1, kappa, L234A L235A, V domains shown)
VH: EVQLVESGGGLVKPGGSLRLSCAASGFTFSDYGMNWVRQAPGKGLEWIAYISSGRGNIYYADTVKGRFTISRDNAKNSLYLQMNSLRAEDTAVYYCARSWGYFDVWGQGTTVTVSS
VL: DIVMTQSPDSLAVSLGERATINCKSSQSLLNRGNQKNYLTWFQQKPGQPPKLLIYWASTRESGVPDRFSGSGSGTDFTLTISSLQAEDVAVYYCQNDYTYPLTFGQGTKLEIKR
notes: Humanized IgG1/kappa with L234A, L235A, T250Q, M428L (LALA-QL); also called VL huAbv1/VH huAb1v1CDR2v7/hCg1/k-LALA-QL; mAb CD40 Ab102 [hu IgG1/k]; LALA QL
